# Assay results taken from paper PMC7862700.
# Chains of the proteins cited; added tags and fusions are not shown. Lines headed by an entry give the natural chain unless they say otherwise; changes in a name come on top.
# UniProt O43186: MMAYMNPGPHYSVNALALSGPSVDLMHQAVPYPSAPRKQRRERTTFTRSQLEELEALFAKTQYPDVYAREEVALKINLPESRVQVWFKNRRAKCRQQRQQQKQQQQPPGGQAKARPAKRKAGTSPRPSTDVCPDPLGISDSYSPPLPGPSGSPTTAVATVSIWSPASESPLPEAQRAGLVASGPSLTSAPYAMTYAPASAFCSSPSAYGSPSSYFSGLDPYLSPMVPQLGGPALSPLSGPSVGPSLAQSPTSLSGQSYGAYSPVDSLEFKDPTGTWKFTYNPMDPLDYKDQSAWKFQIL
# This is a selection; strong and weak results do not stand in their true shares. At the low end of the ranking, values are background and their order means little.
# Biological target: CRX (UniProt O43186)
# Experiment: DAPPL (digital affinity profiling via proximity ligation, sequencing)
# Settings: 10 mM Tris-HCl pH 7.5, 50 mM NaCl, 1 mM DTT, 4% glycerol, room temperature, 30 min; GST-TFs on glutathione beads, 16-mer random dsDNA library, 0.1% …; high values mean tight binding; double strand, one strand shown; scale: fold enrichment (6-mer frequency, TF over GST control)
row,Sequence,binding signal
1,GTAACT,0.966
2,ATGTGT,0.882
3,CGAAGC,1.19
4,CTAATC,5.33
5,TAAAGA,1.85
6,GGCTTC,1.25
7,AATGCA,1.14
8,CCTGTT,1.21
9,TTAACT,2.72
10,GTACTT,1.6
11,AATAAT,2.41
12,TTAATG,2.75
13,CTTTCT,1.76
14,CCGATT,2.69
15,GTCTTC,0.858
16,CCGCCT,1.25
17,CTCTGG,1.35
18,CCCGTT,1.02
19,GATGAC,1.26
20,TTATCA,2.19

# In a second layout: entries from further up
row	Sequence	binding signal
4	CTAATC	5.33
5	TAAAGA	1.85
6	GGCTTC	1.25
7	AATGCA	1.14
8	CCTGTT	1.21
9	TTAACT	2.72
10	GTACTT	1.6
11	AATAAT	2.41
12	TTAATG	2.75

# (listing goes on)

row,Sequence,binding signal
1,CGACAC,0.789
2,TCTCCC,1.7
3,ATGGAC,0.909
4,CGCTCC,0.942
5,CCTACG,1.11
6,TTCTCC,1.51
7,TACGAT,1.37
8,CATCTT,1.33
9,AACAGC,0.962
10,CTTTCA,1.25
11,GCTATA,1.23
12,AAGTAA,1.39
13,CGCTTC,1.05
14,TCAATA,1.34
15,CGGATA,0.966
16,ATGAAT,1.2
17,AATAGA,1.15
18,GACCTG,0.933
19,AACAAA,1.14
20,GATGAA,1.22
